Reference: PubChem BioAssay AID493014 (National Center for Advancing Translational Sciences (NCATS), 2011)
The whole screen tested about 340,000 compounds, of which about 170 (0.05%) were called active. Inconclusive means that the source gave no clear call. Such entries were picked first, then a sample of the others. Calls follow the shape of the dose curve; as a rule, active = well fitted inhibition curve with a large enough effect in the signal ratio, with a control signal flat (not every such curve was filed as active); inconclusive = small, poorly fitted or top-dose-only effect, or effect the other way, or a change in a side signal; inactive = flat fitted curve, though single readings scatter; the % refers to the signal ratio. A potency beside an inconclusive call is a rough fit, not a confirmed value.

Assay: qHTS Assay to Find Inhibitors of Chronic Active B-Cell Receptor Signaling;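 as to activity change, negative = inhibition: plate controls were basal doxycycline-induced cells for no effect and cells given 10 µM MG132 for full effect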
Settings: ABC-DLBCL IkBa-CBG/CBR reporter, luminescence ratio (green luciferase fused to IkBa over red control in TMD8 lymphoma cells), 4 h; activity change, negative = inhibition: at 46.1 µM (top of the series)
How it was run: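 TMD8 human ABC-DLBCL cells with doxycycline-inducible IκBα–green luciferase fusion and unfused red luciferase, in 0.5% FBS medium; compounds up to 46 uM, 4 h at 37C. Green/red luminescence ratio, filter-overlap corrected, fitted to concentration-response curves.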
Potency is read from the fitted curve at half-maximal effect.

Compound | activity change, negative = inhibition | Potency
CC(CC(=O)Nc1ccc(Cl)c(S(=O)(=O)N2CCOCC2)c1)c1ccccc1 (stereo not drawn) | inconclusive: -0.0889% | 
Cc1ccc(-c2cc(NC(=O)c3ccccc3[N+](=O)[O-])n[nH]2)cc1 |  | inconclusive: 20 µM [falling, partial curve]
CN(C)c1cccc(C(=O)OCC(=O)Nc2ccccc2Cl)c1 |  | inconclusive: 31.6 µM [falling, partial curve, poor fit]
CCOC(=O)C1=CC[C@@H](c2cc(OC)c(OC)c(OC)c2)N(S(=O)(=O)c2ccc(C)cc2)[C@H]1C(=O)OCC | inactive | 
COCCn1c(C)cc(/C=N/NC(=O)c2cccnc2)c1C | inactive | 
CCOc1ccc(S(=O)(=O)Nc2ccc3c(c2)n(C)c(=O)n3C)cc1 | inconclusive: 4.25% | 
C/C(=N\Nc1ccc(C)c(Cl)c1)c1ccncc1 | inconclusive: 5.66% | 
c1ccc(COC2CCCN(Cc3nc(-c4cccs4)no3)C2)nc1 (stereo not drawn) | inconclusive: -3.97% | 
O=C(COC(=O)CCc1ccccc1)NCc1ccc2c(c1)OCO2 | inconclusive: -0.292% | 
CCc1ccc(-c2cc(C)no2)cc1S(=O)(=O)Nc1cccc(CN2CCCC2)c1 | inactive | 
CCOc1ccc(NC(=O)CC2C(=O)NCCN2C(=O)Nc2ccccc2)cc1 (stereo not drawn) | inconclusive: -2.87% | 
CCOC(=O)c1cc2nc(Nc3ccc(OC)cc3)sc2s1 | inconclusive: -1.39% | 
Cc1ccc(NC(=S)Nc2ncccc2C)c(C)c1 | inconclusive: 13.1% | 
O=C(Nc1ccc(Cl)cc1)N1CCC(c2nc(-c3ccccc3Cl)no2)CC1 | inactive | 
Nc1ccccc1-c1nnc(SCc2ccccc2Cl)[nH]c1=O |  | inconclusive: 29.1 µM [falling, single point]
[O-][n+]1c2c(nn1-c1ccccc1)/C(=N/O)CCC2 | inconclusive: 5.55% | 
CCc1ccc(C(C(=O)NC2CCCC2)N(Cc2cccnc2)C(=O)c2csnn2)cc1 (stereo not drawn) | inconclusive: -38.7% | 
CC(C)Oc1ccccc1OCCN(C)C | inconclusive: 3.51% | 
CCOC(=O)C1=C(c2ccccc2)OC(N)=C(C#N)C1c1cccnc1 (stereo not drawn) | inconclusive: 2.62% | 
COc1ccccc1CNC(=O)COC(=O)c1ccccc1SCC(=O)N1CCCC1 |  | inconclusive: 25.9 µM [falling, partial curve, poor fit]
COc1ccc(-c2cc(C(F)(F)F)nc(-n3cc(Cl)cn3)n2)cc1 | inactive | 
CCCCN1C(=O)/C(=c2\sc3nc(=O)c(-c4ccccc4)nn3c2=O)c2ccccc21 | inconclusive: 0.766% | 
N#C/C(Cn1c[n+](NC(=O)Nc2ccccc2)cn1)=N/O | inconclusive: 10.4% | 
CC1CCN(CC(=O)N2CCc3ccccc32)CC1 | inconclusive: 6.94% | 
Cc1cc(Br)cc(/C=N/NC(=O)c2ccc3c(c2)OCO3)c1O |  | inconclusive: 2 µM [falling, full curve]
O=C(O)C1CC(c2ccccc2F)=NO1 (stereo not drawn) | inconclusive: 3.88% | 

Compound | activity change, negative = inhibition | Potency
O=C(CSc1nnc(COc2cccc3cccnc23)o1)c1ccc(F)cc1 | inconclusive: -18.9% | 
O=C(NC1=NCCS1)c1cc(-c2cccnc2)nc2ccccc12 | inconclusive: 0.0992% | 
Oc1ccc(C[C@H]2CNCCN2CCCCC2CCCCC2)cc1 | inconclusive: -17.2% | 
C=CCn1c(=S)[nH]c2nc3c(cc2c1=O)CCCC3 |  | inconclusive: 0.82 µM [rising, full curve, poor fit]
CCOc1ccccc1N(CC(=O)Nc1ccc(OC)c(OC)c1)S(=O)(=O)c1ccccc1 | inconclusive: 2% | 
COC(=O)c1cccc(C23CC4(C2)[C@H](CN(Cc2cccnc2)[C@@H]4c2ccccc2)C3c2ccc(Cl)nc2)c1 (stereo partly drawn) | inconclusive: -0.375% | 
CCOC(=O)c1oc2ccccc2c1COC(=O)CNC(=O)c1ccccc1OC | inconclusive: 0.893% | 
CN1CCN(C2Cc3ccccc3Sc3ccc(Cl)cc32)CC1 (stereo not drawn) | inconclusive: -14.6% | 
C=C(C)COc1ccc(-c2nc(N)ncc2-c2ccccc2OC)c(O)c1 | inconclusive: -13% | 
CCOc1ccc(C(=O)C(CN2CCOCC2)c2ccccc2)cc1 (stereo not drawn) |  | inconclusive: 20.6 µM [falling, partial curve, poor fit]
Cc1ccc(S(=O)(=O)Nc2ccc(-c3nc4ccc(C)cc4s3)cc2)cc1 | inactive | 
COc1ccc(N2CCN(Cc3nc4scc(-c5cccs5)c4c(=O)[nH]3)CC2)cc1 |  | inconclusive: 3.16 µM [falling, partial curve, poor fit]
C=CCSc1nnc(NC(=O)c2nc(SCC)ncc2Cl)s1 | inactive | 
Cc1cc(C(=O)NC2CCCc3c2cnn3-c2ccc(C(C)(C)C)cc2)nn1C (stereo not drawn) |  | inconclusive: 22.4 µM [falling, single point]
Cc1nn(CCCNC(=O)C2CCCO2)cc1Br (stereo not drawn) | inconclusive: -0.1% | 
CC1(C)CC(=O)C2=C(C1)N(CC1CCCO1)C(=O)C2(O)C(F)(F)F (stereo not drawn) | inconclusive: 0.46% | 
Cc1ccc(S(=O)(=O)N2CCCC2)cc1C(=O)NCc1ccccn1 | inconclusive: -11.9% | 
O=C(O)c1ccc(CN2C(=O)c3ccccc3S2(=O)=O)cc1 | inactive | 
CC(=O)Nc1ccc(NC(=O)CSc2nc(N)c(NC(=O)c3ccco3)c(=O)[nH]2)cc1 | inactive | 
COc1cccc(C2SCC(=O)N2c2cccc(C)c2)c1OC (stereo not drawn) | inconclusive: 4.43% | 
CCN(CC)CC(O)CN1c2ccccc2Sc2ccccc21 (stereo not drawn) | inconclusive: -23.6% | 
O=C(Nc1ccc(Cl)c(Cl)c1)c1csc(-c2ccccc2)n1 | inconclusive: 3.8% | 
Cc1cc2cc3c(cc2nc1SCC(=O)O)OCCO3 |  | inconclusive: 8.91 µM [rising, partial curve, poor fit]
CCN1CCN(S(=O)(=O)c2ccc(Cl)c(C(=O)N(C)Cc3ccccc3)c2)CC1 | inconclusive: 5.07% | 
COc1ccc(C)cc1Nc1nc(N)c2cc(OC)c(OC)cc2n1 |  | inconclusive: 20 µM [falling, partial curve, poor fit]
CC(C(=O)Nc1ccccc1F)N1CCN(C)CC1 (stereo not drawn) | inconclusive: 5.74% | 

Random excerpt: 3 entries already listed
Compound | activity change, negative = inhibition | Potency
O=C(Nc1ccc(Cl)c(Cl)c1)c1csc(-c2ccccc2)n1 | inconclusive: 3.8% | 
C=CCSc1nnc(NC(=O)c2nc(SCC)ncc2Cl)s1 | inactive | 
O=C(O)c1ccc(CN2C(=O)c3ccccc3S2(=O)=O)cc1 | inactive | 

Carrying on:

Compound | activity change, negative = inhibition | Potency
COCc1cc(C)nc(SCc2ccccc2)c1C#N | inconclusive: 10.9% | 
CCOc1cc(C(=O)Nc2cc(F)ccc2C)ccc1OCC(=O)N1CCOCC1 | inconclusive: -3.57% | 
CC(=O)Nc1ccc(NC(=O)CSc2nnc(-c3ccccc3)n2Cc2ccc3c(c2)OCO3)cc1 | inactive | 
CCCCn1c(=NC(=O)c2ccco2)c(C(=O)OCC)cc2c(=O)n3cccc(C)c3nc21 | inconclusive: 21.8% | 
CCc1cccc(NC(=O)C2CCN(S(=O)(=O)c3cccc(-c4noc(C)n4)c3)CC2)c1 |  | inconclusive: 0.1 µM [falling, full curve, poor fit]
COC(=O)c1ccccc1OCC(=O)N1CCN(c2ccc(F)cc2)CC1 |  | inconclusive: 11.2 µM [falling, partial curve]
Cc1ccc(C)c(OCc2ccc(C(=O)N3N=C(C(F)F)CC3(O)C(F)F)o2)c1 (stereo not drawn) | inactive | 
O=C(CSc1ncccn1)NC1CCCc2ccccc21 (stereo not drawn) | inactive | 
COc1cccc(NC(=O)CN(C)CC(=O)c2c(C)[nH]c3ccccc23)c1 |  | inconclusive: 16.4 µM [falling, partial curve, poor fit]
CCCCn1c(SCC(=O)NCc2ccc(C)cc2)nc2c(sc3ccccc32)c1=O |  | inconclusive: 0.316 µM [falling, full curve, poor fit]
C=CC[C@@H](Cc1ccc(F)cc1)C(=O)OC[C@@H]1CCCN1C(=O)[C@@H](CC=C)CC(=O)N[C@@H](CO)Cc1ccccc1 |  | inconclusive: 16.4 µM [falling, single point]
CC1(C)Cc2c(cnn2-c2cccc(F)c2)C(NC(=O)CSc2ccncc2)C1 (stereo not drawn) |  | inconclusive: 3.16 µM [falling, single point]
CC(C)(C)NC(=O)CSc1nncn1NCc1cccc2ccccc12 |  | inconclusive: 29.1 µM [falling, single point]
CCOC(=O)N1CCN(C(=O)COc2cccc3c2CCN(CC)C3=O)CC1 | inconclusive: -19.7% | 
CCOC(=O)[C@H]1[C@H]2COc3ccc(OC)cc3[C@@H]2N2C(=O)CN(Cc3ccccc3)C(=O)[C@@]12C | inconclusive: -0.492% | 
CC(C)CC(=O)Nc1ccc(C(=O)Cn2nc(C(=O)O)c3ccccc3c2=O)cc1 | inconclusive: -6.84% | 
COc1cccc(NC(=O)Cc2cccs2)c1 | inconclusive: -1.36% | 
CCN1C(=O)c2cccc3c(S(=O)(=O)Nc4ccc(OC)cc4OC)ccc1c23 | inactive | 
COc1ccc(CN2CCN(C(=O)c3cc(-c4cccnc4)nc4ccc(Cl)cc34)CC2)c(OC)c1OC | inactive | 
O=C(COC(=O)c1ccc(Cl)c(S(=O)(=O)N2CCCCCC2)c1)Nc1ccccc1 |  | inconclusive: 18.4 µM [falling, single point]
N/C(=N\OC(=O)c1ccco1)c1cccc([N+](=O)[O-])c1 | inconclusive: 8.63% | 
C/C(=C\c1ccccc1)C(=O)c1c(C)cc(C)[nH]c1=O | inconclusive: -25.9% | 
CC(=O)NCC(=O)OCC(=O)c1ccccc1 | inconclusive: 10.3% | 
CCOC(=O)c1c(C)[nH]c(C)c1C(=O)CSc1nnnn1-c1ccccc1 | inconclusive: -12.4% | 
Cc1ccsc1-c1nc(CSCC(=O)N2CCN(c3ccccc3)CC2)c(C)o1 |  | inconclusive: 16.4 µM [falling, partial curve]
CC(C)(C)[C@@H]1C=C(C(=O)NC2CC2)O[C@H](OCc2ccc(CO)cc2)C1 | inconclusive: -0.772% | 
